Measurements reported in PubChem BioAssay AID743454 (Peter MacCallum Cancer Centre, 2014)

Test: 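Search for knock-downs that restore vorinostat killing in resistant colon cancer cells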 (primary screen)
Cell system: human HCT116-VR colon cancer cells, selected for vorinostat resistance
Reagent: siRNA pool against human genes, 40 nM siRNA pool
Timing: vorinostat for 24 h, read-out about 72 h after transfection
Challenge: vorinostat at 2.5 µM final
Read-out: 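Cell viability by CellTiter-Fluor and caspase 3/7 activity by luminescence, each scaled to mock wells per plate, duplicates averaged, then robust z-scored over all plates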
Scale: viability robust z-score: higher = more viable cells than screen typical; caspase robust z-score: higher = more caspase 3/7 activity than screen typical
Active means: 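Hits are knock-downs in viability class RV1/RV2 or caspase class CA1/CA2, excluding ones that killed cells in the no-drug cell-count arm; hits then retested with single siRNAs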
The whole screen tested about 18,000 reagents; shown is an unselected part. Of all reagents, 450 (2.5%) got an active call. 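Single biological run; no consistent viability z cut-off exists, so the class columns, not z-scores, define the calls.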

gene | viability hit class | caspase hit class | viability robust z-score | caspase robust z-score | activity call
HDAC10 | no change | no change | -0.56 | 0.96 | inactive
ABCD3 | no change | no change | -0.56 | 0.26 | inactive
KRT28 | no change | no change | 1.69 | 1.84 | inactive
CD14 | no change | no change | 0.29 | -0.7 | inactive
SNX7 | no change | no change | 0.06 | 2.42 | inactive
SHC2 | no change | no change | -0.61 | 3.29 | inactive
TRHR | RV2 (reduced viability) | no change | -3.72 | 3.4 | active
SLC25A31 | no change | no change | 0.79 | -0.27 | inactive
GIGYF1 | no change | no change | -0.26 | -0.57 | inactive
ARSD | no change | no change | 1.12 | -0.96 | inactive
NBPF3 | no change | no change | 1.31 | -0.11 | inactive
XRCC6 | no change | no change | -0.94 | -0.62 | inactive
KCTD1 | no change | no change | 1.03 | -0.55 | inactive
ZNF540 | no change | no change | 0.49 | -0.16 | inactive
GTF2I | no change | no change | 0.73 | -0.33 | inactive
CYP2C8 | no change | no change | 0.53 | -1.05 | inactive
CCDC97 | no change | no change | -0.02 | 4.39 | inactive
SYT11 | no change | no change | -1.62 | 0.82 | inactive
RAMP1 | no change | no change | -1.12 | -0.3 | inactive
NPM3 | no change | no change | 1.29 | -0.23 | inactive
KAT14 | no change | no change | 0.3 | 2.4 | inactive
SUFU | no change | no change | 1.94 | -0.36 | inactive
RNF19B | no change | CA2 (caspase activation) | -1.34 | 7.48 | active
MAGOHB | no change | no change | 1.28 | -0.74 | inactive

Reagents listed so far marked active:
gene | viability hit class | caspase hit class | viability robust z-score | caspase robust z-score | activity call
TRHR | RV2 (reduced viability) | no change | -3.72 | 3.4 | active
RNF19B | no change | CA2 (caspase activation) | -1.34 | 7.48 | active

The list goes on:
gene | viability hit class | caspase hit class | viability robust z-score | caspase robust z-score | activity call
NXN | no change | no change | 0.26 | -1.07 | inactive
ZNF143 | no change | no change | 0.72 | -0.42 | inactive
OR56B4 | no change | no change | -2.82 | 1.55 | inactive
ADAMTS20 | no change | no change | 0.1 | -0.01 | inactive
PABPC1 | no change | no change | -0.96 | 0.26 | inactive
HMGB1 | no change | no change | -0.84 | 0.67 | inactive
AGAP3 | no change | no change | 1.34 | 0.86 | inactive
CDH19 | no change | no change | -1.18 | 0.74 | inactive
ST3GAL4 | no change | no change | -0.4 | 0.72 | inactive
TGFA | no change | no change | -0.31 | -0.38 | inactive
DISP2 | no change | no change | 0.58 | 0.13 | inactive
TMEM243 | no change | no change | -0.1 | -0.93 | inactive
CETN2 | no change | no change | -0.13 | -0.9 | inactive
SLC14A1 | no change | no change | -0.02 | 0.01 | inactive
FOXN2 | no change | no change | -0.04 | 0.3 | inactive
TAS2R5 | no change | no change | 0.31 | -0.58 | inactive
SSTR5 | no change | no change | -0.32 | -0.17 | inactive
CENPA | no change | no change | 0.85 | -0.55 | inactive
SYNPO2L | no change | no change | -0.92 | -1.02 | inactive
BBC3 | no change | no change | 0.72 | 1.73 | inactive
PLEKHM3 | no change | no change | 0.85 | -0.75 | inactive
PCDHB8 | no change | no change | -0.04 | -0.85 | inactive
CHRM3 | no change | no change | -1.61 | 2.45 | inactive
CASKIN2 | no change | no change | 0.37 | 1.54 | inactive
BTG1 | no change | no change | 1.1 | 4.7 | inactive
LRIT2 | no change | no change | 0.8 | 1.98 | inactive
FAAP20 | no change | no change | -0.92 | 0.56 | inactive
POU2AF2 | no change | no change | 0.7 | 0.88 | inactive
CNEP1R1 | no change | no change | -0.2 | -0.49 | inactive
GHRHR | no change | no change | -0.17 | 4.3 | inactive
SERINC4 | no change | no change | -1.21 | -1.23 | inactive
ERGIC1 | no change | no change | 0.55 | 0.66 | inactive
ZNF69 | no change | no change | -0.78 | -0.42 | inactive
